Here are results for one substance from article PMC8935233.

Chains of the proteins cited; added tags and fusions are not shown.
UniProt Q92786: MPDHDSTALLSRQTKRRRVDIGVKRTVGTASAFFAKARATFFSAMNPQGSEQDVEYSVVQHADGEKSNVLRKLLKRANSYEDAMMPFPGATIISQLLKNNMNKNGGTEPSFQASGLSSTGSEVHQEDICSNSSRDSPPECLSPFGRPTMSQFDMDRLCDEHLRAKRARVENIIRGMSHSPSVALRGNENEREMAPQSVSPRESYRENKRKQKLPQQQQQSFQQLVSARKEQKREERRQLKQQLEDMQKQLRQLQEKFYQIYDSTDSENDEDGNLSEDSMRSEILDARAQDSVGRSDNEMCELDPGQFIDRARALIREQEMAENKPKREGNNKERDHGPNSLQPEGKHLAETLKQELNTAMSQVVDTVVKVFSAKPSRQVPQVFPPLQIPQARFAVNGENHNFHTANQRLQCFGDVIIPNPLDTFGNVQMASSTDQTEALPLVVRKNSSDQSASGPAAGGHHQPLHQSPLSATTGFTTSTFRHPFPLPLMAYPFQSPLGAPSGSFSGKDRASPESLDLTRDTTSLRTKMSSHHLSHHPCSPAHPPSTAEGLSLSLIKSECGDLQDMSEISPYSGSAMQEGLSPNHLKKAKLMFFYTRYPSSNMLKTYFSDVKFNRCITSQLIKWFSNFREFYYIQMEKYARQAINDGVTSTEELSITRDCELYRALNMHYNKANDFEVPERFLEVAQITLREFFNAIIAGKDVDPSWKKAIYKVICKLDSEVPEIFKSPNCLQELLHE

Assay [1] concerns the target PROX1 (Prospero-related homeobox 1), overexpressed in MCF-7 (human) (UniProt Q92786). Description: affinity purification with mass spectrometry; IP of PROX1 from MDA-MB-231 lysate and from lysate of PROX1-overexpressing MCF-7 (NP-40 lysis buffer: 20 mM Tris-HCl, 150 mM NaCl, 0.5% NP-40, 20% glycerol; protein A/G magnetic beads); eluates on 10% SDS-PAGE, trypsin, Orbitrap Elite LC-MS/MS.

For assay [2], the target named is PROX1 (Prospero-related homeobox 1) (human (endogenous in MDA-MB-231)) (UniProt Q92786). The description is as above.

No constants are given. Whether binding was seen depends on the method and setting. Binding seen in cells or lysates may run through a third protein. Here binding means that the protein was enriched with, or labelled near, the bait; the list need not be complete.

Turning to “Heterogeneous ribonucleoprotein K (hnRNPK) (from UniProt P61978 1-463)”, the binding result in assay [1] and in assay [2] was “binds” each time.
